Assay results published in paper PMC6461442.

Experiments:
Chm7-GFP (S. cerevisiae) [1] = test: affinity purification with mass spectrometry; Chm7-GFP captured from extracts of vps4Δpom152Δ cells on GFP-nanobody magnetic beads, 1 hr 4°C, 400 mM trisodium citrate pH 8, 0.5% n-dodecyl β-D-maltoside; LC-MS/MS against no-GFP control, one replicate
Chm7-GFP (S. cerevisiae) [2] = test: affinity purification with mass spectrometry; GFP fusion captured from extracts of otherwise wildtype cells on GFP-nanobody magnetic beads, 1 hr 4°C, 400 mM trisodium citrate pH 8, 0.5% n-dodecyl β-D-maltoside; LC-MS/MS against no-GFP control

Row | Binder | binding (Chm7-GFP (S. cerevisiae) [1]) | binding (Chm7-GFP (S. cerevisiae) [2])
1 | Heh1 (protein, UniProt Q03707 1-834) MNSDLEYLEDGFDPNSMKVATLRRILVENNVDFPSNARKNALVGLFDEKVKPQIPQLRKMYLNVRPSDEGIVKMDRPSSSPSIASPRRSRRARREKSASPMAKQFKKNRILDDVSNDDDDDDDDDDDNDKKDDPLIVPSGTDTDEVDDEEDDVITSSSNKSDTNDFQQNSDTRKKRKDPDSDDWSESNSKENKIDNKHLNLLSSDSEIEQDYQKAKKRKTSDLNQEHGNGSAILGKLSVKTPIKNTNRKPVSMDNFNDSLTSSGTENDPFVPNIRHNPKELGTANGTGHSTPLSKLKVSASFADKLPQKEVPSTILVPEVEQQEPSQSERTPSLFSSEGSGSESEAPLLPEITTPGPHQPMGNTSNNVVEMIDTDSSNLVSDEDEVLVPTRIETPQLPTEKDVEKCEARVQELQEEVNEQLEHENGSEFDVKQGSGKVGNRHKFKRALKFLSKSLLALFLFCIFIVIPLLFGLWYREQRLLIGYCGHEVPSHRVSGNSFEFIQKLDNLLQDYRPKCIPCPPNGICYPYLKLKCKPDYKLAPSRLDFLEIIPAQGKCVKDDKKQQLVSEVVEKSLEFLRAKNAQISCGDGKDDIESGMTEDALYQIFNEARAPWIRDDEFEDLWIQVIKDLTEEPEILWRQLSPTDNNIGGNSNNIIKTNDVPRQKRHLPEKFISKTRNFRSTSKKYIGMKCRFEREIYQTYKKFQRPIWLMFLLIVISKVIEIKLKNYYRKKARIEELVTQTMEKLKFQKIKSMSDPKENAYLSIVQLRDIFLSDIVDLKYKNQLWSEVVKYLEHNNSNIKSNLTEIRGEIMKCWEWIGPMELNEPKDSAENKI | binds | –
2 | Heh2 (protein, UniProt Q03281 1-663) MDHRNLDPKTLKVSQLRRVLVENDVAFPANARKPVLVKLFEEKVRQRLQSSPEASKVRTSIQKVVKSGAKNADRKKTLKSKKLESSSSESKTVKDENVETNKRKREQISTDNEAKMQIQEEKSPKKKRKKRSSKANKPPESPPQSKSDGKATSADLTSELETVEELHKKDSSDDKPRVKELPKPELPNLKVSNEFLAQLNKELASAATENYDHSIKSTDLSSIRIETEEPVGPSTGAETRNESEVMENINLEVQPEVKEAKEELTKISETFDNQDEEDTSRLSSKKNIRSPKGRTRHFIANKTKRGIDIMKPFIAHLFIWLWNGAIFLSIICPILFGLWYREQRIQVGYCGHEKPLKSLAISAFPQTERVDSVLQAYRPNCLECPEHGICSSFMNVECEPGYEPKSSILETYGIIPFPKYCAKDESKEKEVDELVWKVNEYLKKKNAQHECGEGENLFESGETETKLYDIFSHSRPSWESQREFNDHWKNVLEILKKKDDIIWLPLDFETNGKREKSKSNNTNYIYRSTSKKWVTLQCHLEGDIQEYITKYGGSLFITLGVLFLIKKIQSTLDNYVQGEQIIEKLVKEAIDKLKDVKKNKGEEPFLTTVQLRATLLSDIPNIKEQNNLWAQTKEKIMKEQSENIELYLLEENGEIMTCWEWKE | no binding | no binding

Continued, values first:

Row | binding (Chm7-GFP (S. cerevisiae) [1]) | binding (Chm7-GFP (S. cerevisiae) [2]) | Binder
3 | binds | – | Snf7 (protein, UniProt P39929 1-240) MWSSLFGWTSSNAKNKESPTKAIVRLREHINLLSKKQSHLRTQITNQENEARIFLTKGNKVMAKNALKKKKTIEQLLSKVEGTMESMEQQLFSIESANLNLETMRAMQEGAKAMKTIHSGLDIDKVDETMDEIREQVELGDEISDAISRPLITGANEVDEDELDEELDMLAQENANQETSKIVNNNVNAAPISENKVSLPSVPSNKIKQSENSVKDGEEEEDEEDEDEKALRELQAEMGL
4 | binds | – | Nur1 (protein, UniProt Q12066 1-484) MGSNDLINEAYDDSEVVGEERESKSAWMKRWYQLLTSPLDLQLVINEKLEMINWDAYAKSLAKPLGNFLTILFFIIRLLQDNLIKPNYYKLNVKSGAFDLSKSNKLKEFDYLWEISSSFQNNNQFYAFQSWYFVTLRFLNNLFRFTIFILLSLNLYVSCKFMFGYFKTYNLFHLKKEFNSPNLTKHNLKDLSKEYYEDIYKQSLWSMLKHFFRGSRDDGPHVNQNEDEIFFQLRKWIPTNFMINLFVSFSPTAIVFLSFSDVSFTSAIAIVFHQYILDYIITKRFQRSVDDDLILSSAALQEYEDKHIMARINQCSNIDTLSSAMGTRSKTPRIFTTHSLCGEEIREVYNYEKREFEALPKMTESVPGSRETRIKDYGGISQVSDHQSHPIGFHYSPRMSPYYRDKVLDNNLAQSSSNENLEKGGAYLPNQDQNRPSKSLSPLRKTPLSARQKRFEGSEFNVLNKNDINSILRSPKKKKNYHKR

These are yes or no findings as the source states them, for the method shown. In cells and extracts the contact can be indirect. Here binding means that the protein was enriched with, or labelled near, the bait; the list need not be complete. A no says only that the protein was not detected with the bait.
